Data published in publication PMC10462666.
Results are given in words; binding and its absence hold for the method and conditions named. Binding seen in cells or lysates may run through a third protein. A result given as binding can be weak or reduced; the word gives no strength.

Chains of the proteins cited; added tags and fusions are not shown. Lines headed by an entry give the natural chain unless they say otherwise; changes in a name come on top.
UniProt Q15154: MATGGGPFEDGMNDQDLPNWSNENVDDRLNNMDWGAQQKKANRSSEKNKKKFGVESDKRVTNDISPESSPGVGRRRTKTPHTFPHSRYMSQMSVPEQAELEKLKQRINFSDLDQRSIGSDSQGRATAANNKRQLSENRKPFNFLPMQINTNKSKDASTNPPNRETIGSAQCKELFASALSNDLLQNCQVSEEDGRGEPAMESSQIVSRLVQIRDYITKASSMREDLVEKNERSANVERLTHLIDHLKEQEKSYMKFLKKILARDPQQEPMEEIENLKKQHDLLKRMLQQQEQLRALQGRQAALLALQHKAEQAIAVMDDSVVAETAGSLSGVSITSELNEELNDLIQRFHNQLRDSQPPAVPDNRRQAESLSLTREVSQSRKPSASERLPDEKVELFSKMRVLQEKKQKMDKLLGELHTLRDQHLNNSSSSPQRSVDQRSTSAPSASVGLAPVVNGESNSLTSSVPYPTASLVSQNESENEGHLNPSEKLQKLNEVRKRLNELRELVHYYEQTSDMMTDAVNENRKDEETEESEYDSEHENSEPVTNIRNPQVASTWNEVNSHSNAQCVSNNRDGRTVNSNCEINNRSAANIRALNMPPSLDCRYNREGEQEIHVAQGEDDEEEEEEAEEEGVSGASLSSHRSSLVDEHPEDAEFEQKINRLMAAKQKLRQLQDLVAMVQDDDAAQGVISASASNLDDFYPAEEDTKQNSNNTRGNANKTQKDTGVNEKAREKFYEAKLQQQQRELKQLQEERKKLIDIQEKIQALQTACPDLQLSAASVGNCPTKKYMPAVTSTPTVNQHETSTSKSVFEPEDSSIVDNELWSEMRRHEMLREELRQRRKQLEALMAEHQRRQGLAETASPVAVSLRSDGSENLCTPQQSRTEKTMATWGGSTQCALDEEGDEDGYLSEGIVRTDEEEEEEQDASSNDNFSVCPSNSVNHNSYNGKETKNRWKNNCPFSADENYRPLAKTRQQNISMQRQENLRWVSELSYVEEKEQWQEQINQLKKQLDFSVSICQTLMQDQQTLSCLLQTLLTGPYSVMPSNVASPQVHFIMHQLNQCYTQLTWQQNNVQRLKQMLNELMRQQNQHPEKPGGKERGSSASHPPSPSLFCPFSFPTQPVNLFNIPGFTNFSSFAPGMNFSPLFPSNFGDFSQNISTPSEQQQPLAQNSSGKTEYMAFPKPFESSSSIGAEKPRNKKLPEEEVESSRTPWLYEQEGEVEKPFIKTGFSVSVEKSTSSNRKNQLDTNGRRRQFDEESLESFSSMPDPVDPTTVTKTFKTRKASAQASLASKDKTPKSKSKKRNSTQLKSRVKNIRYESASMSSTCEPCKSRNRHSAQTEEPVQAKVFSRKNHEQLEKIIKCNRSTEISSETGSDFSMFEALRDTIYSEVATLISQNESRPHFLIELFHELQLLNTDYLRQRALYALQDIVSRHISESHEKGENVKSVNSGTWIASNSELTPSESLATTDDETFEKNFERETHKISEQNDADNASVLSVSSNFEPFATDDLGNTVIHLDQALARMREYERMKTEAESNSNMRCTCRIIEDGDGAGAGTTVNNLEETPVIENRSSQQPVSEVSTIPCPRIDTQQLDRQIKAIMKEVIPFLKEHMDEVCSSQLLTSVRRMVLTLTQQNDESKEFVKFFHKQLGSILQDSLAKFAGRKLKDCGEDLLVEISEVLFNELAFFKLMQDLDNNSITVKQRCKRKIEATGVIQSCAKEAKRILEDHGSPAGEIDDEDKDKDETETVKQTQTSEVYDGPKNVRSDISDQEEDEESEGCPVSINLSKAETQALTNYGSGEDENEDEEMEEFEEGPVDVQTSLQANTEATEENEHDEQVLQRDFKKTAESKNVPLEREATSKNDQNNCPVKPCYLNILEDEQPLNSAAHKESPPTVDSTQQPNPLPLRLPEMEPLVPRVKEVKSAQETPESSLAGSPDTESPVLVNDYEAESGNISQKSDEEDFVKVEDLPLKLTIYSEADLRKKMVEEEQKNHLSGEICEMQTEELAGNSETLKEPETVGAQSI
UniProt O60884: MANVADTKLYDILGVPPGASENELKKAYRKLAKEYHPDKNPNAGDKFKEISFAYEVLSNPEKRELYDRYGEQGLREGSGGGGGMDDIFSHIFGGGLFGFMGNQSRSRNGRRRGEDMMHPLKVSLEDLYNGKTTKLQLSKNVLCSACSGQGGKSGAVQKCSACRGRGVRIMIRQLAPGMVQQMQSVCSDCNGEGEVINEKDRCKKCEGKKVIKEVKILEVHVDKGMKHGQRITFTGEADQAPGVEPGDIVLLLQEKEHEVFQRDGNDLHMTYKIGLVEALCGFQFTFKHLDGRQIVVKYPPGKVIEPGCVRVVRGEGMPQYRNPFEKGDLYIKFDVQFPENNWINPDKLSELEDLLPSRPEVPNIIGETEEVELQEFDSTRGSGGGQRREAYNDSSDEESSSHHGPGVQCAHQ
UniProt P11142: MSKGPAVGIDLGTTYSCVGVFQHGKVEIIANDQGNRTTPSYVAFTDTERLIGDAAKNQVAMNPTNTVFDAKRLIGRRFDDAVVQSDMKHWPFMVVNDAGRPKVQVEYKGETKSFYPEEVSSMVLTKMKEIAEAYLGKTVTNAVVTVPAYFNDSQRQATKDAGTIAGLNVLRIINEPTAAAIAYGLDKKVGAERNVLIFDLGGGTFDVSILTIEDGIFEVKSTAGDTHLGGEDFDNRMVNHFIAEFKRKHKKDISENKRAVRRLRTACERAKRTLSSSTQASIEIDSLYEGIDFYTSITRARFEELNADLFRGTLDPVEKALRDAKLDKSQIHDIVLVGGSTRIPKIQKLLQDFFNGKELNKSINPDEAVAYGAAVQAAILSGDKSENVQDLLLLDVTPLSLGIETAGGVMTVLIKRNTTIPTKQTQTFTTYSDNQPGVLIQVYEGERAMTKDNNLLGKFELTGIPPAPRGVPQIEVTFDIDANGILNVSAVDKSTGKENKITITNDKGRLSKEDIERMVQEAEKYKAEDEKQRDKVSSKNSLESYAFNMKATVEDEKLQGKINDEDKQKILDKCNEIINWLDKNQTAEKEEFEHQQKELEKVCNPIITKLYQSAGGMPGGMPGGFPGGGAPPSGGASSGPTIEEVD

Target: HA-tagged PCM1 KFERQ mutant (2AA) (human) (UniProt Q15154)
Assay: co-IP; lysate of HeLa cells expressing HA-tagged WT or 2AA PCM1; anti-HA antibody, Protein G agarose; Western blot for HSC70 and DNAJA2

binding | Substance
binds | DnaJ heat shock protein (HSP40) family member A2 (DNAJA2) (from UniProt O60884 1-412)
binds | HSC70 (the 71 kDa heat shock cognate) (from UniProt P11142 1-646)
